Measurements published in patent publication US20220288040A1, “USE OF PYRVINIUM FOR THE TREATMENT OF A RAS PATHWAY MUTATED ACUTE MYELOID LEUKEMIA” (INSERM (INSTITUT NATIONAL DE LA SANTÉ ET DE LA RECHERCHE …, priority 2019, published 2022).

Test system: NF1 knockdown AML cell lines
Protocol: UptiBlue: Cells were seeded in 100 μl of culture medium for 48 hours. […] The UptiBlue viable cell-counting reagent (Interchim, Montluçon, France) was then added for 4 hours and fluorescence was measured with a Typhoon 8600 scanner (GE Healthcare BioSciences, Buc, France).

`Cc1cc(/C=C/c2ccc3cc(N(C)C)ccc3[n+]2C)c(C)n1-c1ccccc1` [pyrvinium pamoate, 2-[(E)-2-(2,5-dimethyl-1-phenyl-1H-pyrrol-3-yl)ethenyl]-6-(dimethylamino)-1-methylquinolin-1-ium] was tested. Which cytotoxic activity did it give?
The cytotoxic activity was “strong cytotoxic activity”.
